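Luminescent viability signal from SK-N-MC cancer cells after two days of exposure to each compound. Compounds were titrated in a dilution series reaching mostly about 45.9 µM at the top. The number is the fitted AC50 potency for the cell-killing curve; a lower value means a more potent compound. Calls come from the fitted curve: inconclusive marks weak, poorly fitted or top-dose-only effects, scored 1 to 39.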

Values are in nM. Every entry below has the call inconclusive. These entries are mostly ones the record files as inconclusive; other results of the assay are not listed here. A potency from a partial, single-point or poor curve is only a rough figure. Activity scores are not listed here.

| SMILES | fitted potency (nM) | remark |
|---|---|---|
| `CC(=O)N1CCN(c2ccc(OCc3nn(C)c(C)c3-c3cccc4c(CCCOc5cc(C)c(Cl)c(C)c5)c(C(=O)O)n(Cc5cccnc5)c34)cc2)CC1` | 26140 | cytotoxic, partial curve, poor fit |
| `O=NN(CCCl)C(=O)NCCCl` | 32909 | cytotoxic, single point |
| `O=C(O)Cc1ccccc1` | 32909 | cytotoxic, single point |
| `CC(=O)OCC(=O)[C@@]1(OC(C)=O)[C@@H](C)C[C@H]2[C@@H]3C[C@H](F)C4=CC(=O)C=C[C@]4(C)[C@@]3(F)[C@@H](O)C[C@@]21C` | 36924 | cytotoxic, single point |
| `COc1ccc2c(Oc3ccc(NC(=O)c4c(C)n(CC(C)(C)O)n(-c5ccccc5)c4=O)cc3F)ccnc2c1` | 20764 | cytotoxic, partial curve, poor fit |
| `Cc1ccc(NC(=O)c2ccc(CN3CCN(C)CC3)cc2)cc1Nc1nccc(-c2cccnc2)n1` | 36924 | cytotoxic, single point |
| `CCOP(=S)(OCC)Oc1ccc2c(C)c(Cl)c(=O)oc2c1` | 36924 | cytotoxic, single point |
| `C=C[C@@]1(C)CC(=O)[C@]2(O)[C@@]3(C)[C@@H](O)CCC(C)(C)[C@@H]3[C@H](O)[C@H](OC(C)=O)[C@@]2(C)O1` | 36924 | cytotoxic, single point |
| `COc1ccc(-c2nc(N3CCOCC3)c3sc(CN(C)c4ncc(C(=O)NO)cn4)cc3n2)cn1` | 116.8 | cytotoxic, full curve, poor fit |
| `CN(C)c1ccc(O)c2c1C[C@H]1C[C@H]3[C@H](N(C)C)C(=O)C(C(N)=O)=C(O)[C@@]3(O)C(=O)C1=C2O` | 13101 | cytotoxic, partial curve, poor fit |
| `C[C@@H]1C[C@H]2[C@@H]3CCC4=CC(=O)C=C[C@]4(C)[C@@]3(F)[C@@H](O)C[C@]2(C)[C@@]1(O)C(=O)CO` | 36924 | cytotoxic, single point |
| `Cc1c(NC(=O)OC[C@@H]2COCCN2)cn2ncnc(Nc3ccc4c(cnn4Cc4cccc(F)c4)c3)c12` | 36924 | cytotoxic, single point |
| `CC=C(C)C(=O)O[C@H]1C(C)=C[C@]23C(=O)[C@@H](C=C(CO)[C@@H](O)[C@]12O)[C@H]1[C@@H](C[C@H]3C)C1(C)C` | 26140 | cytotoxic, single point |
| `CCCCC(=O)O[C@]1(C(=O)CO)CC[C@H]2[C@@H]3CCC4=CC(=O)CC[C@]4(C)[C@H]3[C@@H](O)C[C@@]21C` | 32909 | cytotoxic, single point |
| `O=C1c2ccccc2-[n+]2ccc3c([nH]c4ccccc43)c21` | 2330 | cytotoxic, full curve, poor fit |
| `CC1(C)CCC2=C(O1)c1ccccc1C(=O)C2=O` | 826.6 | cytotoxic, full curve, poor fit |
| `Nc1ccn([C@@H]2O[C@H](CO)[C@@H](O)C2O)c(=O)n1` (stereo partly drawn) | 36924 | cytotoxic, single point |
| `COc1cc(C(C)=O)ccc1OCCCN1CCC(c2noc3cc(F)ccc23)CC1` | 36924 | cytotoxic, single point |
| `O=C(Oc1cccc2cccnc12)c1ccccc1` | 36924 | cytotoxic, single point |
| `C=C(c1ccc(C(=O)O)cc1)c1cc2c(cc1C)C(C)(C)CCC2(C)C` | 20764 | cytotoxic, partial curve, poor fit |
| `Cc1ccc2c(c1)C(=O)[C@]1(O)CCN(c3ccccc3)C1=N2` | 23297 | cytotoxic, partial curve, poor fit |
| `O=C(c1ccc(F)c(F)c1Nc1ccc(I)cc1F)N1CC(O)([C@H]2CCCCN2)C1` | 29330 | cytotoxic, partial curve, poor fit |
| `CCc1c2c(nc3ccc(O)cc13)-c1cc3c(c(=O)n1C2)COC(=O)[C@]3(O)CC` | 9.3 | cytotoxic, full curve, poor fit |
| `O=C(O)COc1nc(Cl)c(Cl)cc1Cl` | 48891 | cytotoxic, single point |
| `Cc1nc(Nc2ncc(C(=O)Nc3c(C)cccc3Cl)s2)cc(N2CCN(CCO)CC2)n1` | 1.2 | cytotoxic, full curve, poor fit |

The first 2 entries again:

SMILES,fitted potency (nM),remark
CC(=O)N1CCN(c2ccc(OCc3nn(C)c(C)c3-c3cccc4c(CCCOc5cc(C)c(Cl)c(C)c5)c(C(=O)O)n(Cc5cccnc5)c34)cc2)CC1,26140,"cytotoxic, partial curve, poor fit"
O=NN(CCCl)C(=O)NCCCl,32909,"cytotoxic, single point"

Source: PubChem BioAssay AID1347111 (NCATS, 2019).